Screening data, single-dose tests

The chains behind the UniProt entries cited, without tags or fusion partners. Residues count along the entry.
UniProt Q4DA54, 1-478: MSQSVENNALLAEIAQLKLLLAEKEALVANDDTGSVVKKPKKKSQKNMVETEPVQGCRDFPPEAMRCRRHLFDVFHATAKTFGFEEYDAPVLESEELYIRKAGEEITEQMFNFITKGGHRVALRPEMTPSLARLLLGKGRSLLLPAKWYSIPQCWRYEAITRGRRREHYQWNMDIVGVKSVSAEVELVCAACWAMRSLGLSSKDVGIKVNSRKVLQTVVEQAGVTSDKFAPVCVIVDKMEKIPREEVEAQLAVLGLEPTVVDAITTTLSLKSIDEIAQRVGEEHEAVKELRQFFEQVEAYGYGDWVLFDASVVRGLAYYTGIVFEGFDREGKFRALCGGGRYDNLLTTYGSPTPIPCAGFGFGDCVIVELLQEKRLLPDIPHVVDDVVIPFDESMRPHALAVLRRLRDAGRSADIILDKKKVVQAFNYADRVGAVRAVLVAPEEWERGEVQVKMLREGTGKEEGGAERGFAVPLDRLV
UniProt P9WPC5, whole entry: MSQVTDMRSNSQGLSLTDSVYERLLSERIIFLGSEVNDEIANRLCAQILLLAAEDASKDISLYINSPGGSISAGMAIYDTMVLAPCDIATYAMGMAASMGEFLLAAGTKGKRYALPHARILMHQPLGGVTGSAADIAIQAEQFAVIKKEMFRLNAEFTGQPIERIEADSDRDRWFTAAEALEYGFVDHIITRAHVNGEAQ
UniProt P9WPC3, whole entry partner: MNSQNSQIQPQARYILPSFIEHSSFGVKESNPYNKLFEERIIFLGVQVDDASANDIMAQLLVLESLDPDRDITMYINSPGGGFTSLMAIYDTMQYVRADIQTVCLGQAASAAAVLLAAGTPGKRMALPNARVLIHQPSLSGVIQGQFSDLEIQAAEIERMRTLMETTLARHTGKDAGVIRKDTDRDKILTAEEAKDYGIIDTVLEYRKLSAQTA
UniProt Q8IDJ8, 1-583: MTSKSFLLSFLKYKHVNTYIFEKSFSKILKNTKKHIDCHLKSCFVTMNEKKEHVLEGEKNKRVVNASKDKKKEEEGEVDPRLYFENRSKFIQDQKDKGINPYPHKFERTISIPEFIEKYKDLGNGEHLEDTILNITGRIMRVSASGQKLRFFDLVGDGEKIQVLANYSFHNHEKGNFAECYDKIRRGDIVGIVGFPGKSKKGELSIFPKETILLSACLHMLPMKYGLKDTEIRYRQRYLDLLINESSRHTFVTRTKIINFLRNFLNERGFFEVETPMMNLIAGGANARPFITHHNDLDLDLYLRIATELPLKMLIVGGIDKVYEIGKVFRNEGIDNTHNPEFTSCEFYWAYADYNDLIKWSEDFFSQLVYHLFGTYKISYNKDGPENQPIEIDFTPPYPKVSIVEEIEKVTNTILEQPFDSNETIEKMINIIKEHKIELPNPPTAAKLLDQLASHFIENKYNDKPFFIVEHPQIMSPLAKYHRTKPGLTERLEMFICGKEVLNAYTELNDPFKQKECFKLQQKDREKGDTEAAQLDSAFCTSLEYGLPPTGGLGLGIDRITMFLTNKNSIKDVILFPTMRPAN
UniProt A4I591, 1-473: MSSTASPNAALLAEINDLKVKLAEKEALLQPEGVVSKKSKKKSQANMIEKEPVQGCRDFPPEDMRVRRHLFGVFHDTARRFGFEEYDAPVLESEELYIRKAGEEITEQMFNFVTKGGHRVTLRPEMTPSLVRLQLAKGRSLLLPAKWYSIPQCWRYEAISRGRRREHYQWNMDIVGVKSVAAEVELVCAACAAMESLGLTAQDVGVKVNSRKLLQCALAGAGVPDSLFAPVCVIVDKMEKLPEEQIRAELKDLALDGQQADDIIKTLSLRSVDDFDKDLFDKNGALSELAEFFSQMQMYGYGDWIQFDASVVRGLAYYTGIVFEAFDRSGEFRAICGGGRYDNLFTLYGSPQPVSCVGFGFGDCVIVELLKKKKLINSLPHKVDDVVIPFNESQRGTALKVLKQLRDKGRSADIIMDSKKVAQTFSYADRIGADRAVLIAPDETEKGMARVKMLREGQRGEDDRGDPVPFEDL

A: 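Histidine-tRNA ligase, Trypanosoma cruzi CL Brener (UniProt Q4DA54). Enzyme assay of histidyl-tRNA synthetase; the read-out is not stated. Tested at 30 µM. The record gives no direction; compounds that gave an IC50 in retests scored well above the rest, so higher reads as stronger inhibition. Of about 69,000 compounds tested this way, about 31 (0.045%) reached 50% or more in at least one test.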
B: 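Protease assay of ClpP1P2, read by the AMC dye that it sets free. Target: ClpP1P2, Mycobacterium tuberculosis (UniProt P9WPC5 and UniProt P9WPC3). Concentration: 50 µM. Direction is inferred from only a few compounds that gave an IC50; most scored high, so higher reads as stronger inhibition. Most other retested compounds had strongly negative values. Of about 69,000 compounds tested this way, about 10 (0.015%) reached 50% or more in at least one test.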
C: 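Lysine-tRNA ligase, Plasmodium falciparum 3D7 (UniProt Q8IDJ8). Enzyme assay of the cytosolic lysyl-tRNA synthetase in 384-well plates, read by luminescence. Tested at 30 µM. Direction is inferred from only a few compounds that gave an IC50; most scored high, so higher reads as stronger inhibition. Of about 69,000 compounds tested this way, about 49 (0.071%) reached 50% or more in at least one test.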
D: 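Enzyme assay of histidyl-tRNA synthetase; the read-out is not stated. Target: Histidine-tRNA ligase, Leishmania infantum (UniProt A4I591). Concentration: 30 µM. Higher reads as stronger inhibition (inferred: compounds with an IC50 in retests scored well above the rest). The assay is labelled LdHisRS but filed under L. infantum. About 69,000 compounds were tested under these conditions; 0.6% (about 410) showed 50% or more at least once.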

Results are given as percent effect. The record does not define 0% and 100%; most values in the screen are far below 50% and negative numbers occur (in some assays of this library far below -100). This is an unselected part of the compounds tested.

SMILES | A | B | C | D
CCN(CCn1cccn1)Cc1nc(-c2ccoc2)oc1C | 1.058 | -10.52 | -5.792 | 21.21
COCCOCC(=O)NC(C#N)c1cc(Cl)cc(Cl)c1 (stereo not shown) | 2.89 | -5.076 | -1.555 | -4.255
COc1ccc(CN2CCN(C3CCc4ccccc4C3)CC2)cc1O (stereo not shown) | 8.458 | 11.7 | 0.4191 | 16.78
CN(CC1COc2ccccc2O1)C(=O)NCCCn1cccn1 (stereo not shown) | 2.367 | -35.36 | 0.4466 | 10.71
CC(=O)N1CCCN(C(=O)NC(C)Cn2ccnc2)CC1 (stereo not shown) | 3.867 | -4.374 | -0.8722 | 2.073
Nc1cc(CC2COc3ccccc3C2)ccn1 (stereo not shown) | 3.352 | -0.6722 | 3.96 | 6.25
Cc1ncsc1CCN1CCC(N(C)Cc2noc(C(C)C)n2)C1 (stereo not shown) | 2.02 | 10.84 | 1.095 | 14.29
Cc1nc(CN2CCN(C(=O)Cc3cccc(Cl)c3)CC2)no1 | 6.977 | -1.458 | 8.065 | 14.75
CCN(CC)C(=O)[C@@H]1C[C@@H](NC(=O)c2cccn2C2CC2)CN1C | 11.39 | -6.79 | 2.993 | 16.67
Cc1ccc(-c2noc(CN3CCOC(Cn4cccn4)C3)n2)cc1 (stereo not shown) | 5.917 | -12.6 | -0.4196 | 17.86
CC(C)[C@@H](C)NC1CCN(c2ccc(-n3ccnc3)cc2)CC1 | 18.45 | -16.93 | 1.398 | 45.9
CC(C)(C)C(=O)Nc1cnn(-c2ccccc2S(C)(=O)=O)c1 | 11.34 | 16.3 | 4.047 | 24.14
O=C(c1cccnc1N1CCCCC1)N1CCCC(n2ccnc2)C1 (stereo not shown) | 5.294 | -18.47 | 1.161 | 9.174
O=C(C1CCCCC1)N1CCO[C@@H]2CNC[C@@H]21 | 3.448 | -8.49 | 2.846 | 18
Cc1nn(C)c2nc(N3CCC(C(O)Cc4ccccc4)CC3)sc12 (stereo not shown) | 7.821 | -2.404 | 6.473 | -2.083
Cc1cccnc1CN1CCN(C(=O)c2cc(Cl)c[nH]c2=O)CC1 | 1.571 | 8.161 | -1.7 | 10.75
CCN1C[C@H]2[C@@H](C1)N(S(=O)(=O)c1ccccc1)CC[C@H]2OC | 2.941 | 2.265 | 0.8957 | 24
CCC(O)CN1CCN(C(=O)CN(C)c2ccc(Cl)cn2)CC1 (stereo not shown) | 6.154 | -7.563 | -1.813 | 2.041
Cn1cc(N2C(=O)CC[C@@H]3[C@H]2CCN3CC2CCOCC2)cn1 | 5.714 | -12.48 | 0.7076 | 16.67
O=C(CN1CCC(Nc2ncccn2)CC1)Nc1ccccc1 | -0.578 | 4.854 | 6.761 | 6.667
Cc1nc(N)cc(N2CCCC(COc3cccc(F)c3)C2)n1 (stereo not shown) | 13.81 | 4.004 | 1.207 | 24.1
CCn1nc(C)c(CN(CCOC)C(=O)c2ccccc2N(C)C)c1C | 2.273 | 9.457 | 4.415 | 21.67
Cc1cccc(-n2cnc(Cl)c2C(=O)O)c1 | 13 | -2.356 | -3.069 | 16.33
Cc1cc(C(=O)NC2CCCc3c2cnn3-c2cccc(C)c2C)[nH]n1 (stereo not shown) | -12.05 | -0.2109 | 8.501 | 23.08
COc1ccc2c(c1)OCC(Cc1ccnc(N)n1)C2 (stereo not shown) | 5.291 | -3.372 | 8.122 | 9.091
Cc1nc(CNC(=O)NCCC2=CCCC2)oc1C | 3.261 | -2.501 | -4.17 | -9.091
N#Cc1ccc(C(=O)N2CCC(c3ncc[nH]3)CC2)cn1 | 3.483 | 9.893 | 1.234 | -1.399
Cn1cc(NC(=O)Nc2ccccn2)cc(Cl)c1=O | 7.303 | -9.256 | -0.35 | 120.5
O=C(Cn1ccnc1)N1CCC(n2cc(-c3cccc(Cl)c3)nn2)CC1 | 3.704 | -6.475 | -0.2027 | 19.35
CC(C)N1[C@H](Cn2cncn2)C[C@@H]2CN(Cc3nccn3C)CC[C@@H]21 | 5.155 | -7.211 | 3.875 | 16
COc1ccccc1N(C)Cc1nc2c(cnn2C)c(=O)[nH]1 | 1.724 | 6.413 | 5.244 | 6.14
COC(=O)c1ncccc1N1CCC(C(O)c2ccccc2)CC1 (stereo not shown) | 5.357 | 5.526 | 7.614 | 15.93
CC(=O)NCC(=O)N1CCN(Cc2ccncc2)c2ncccc2C1 | 5.102 | 3.213 | 0.8226 | 13
COCCN(C/C=C/c1ccccc1)Cc1[nH]cnc1C | 4.082 | -6.389 | 1.88 | 11.43
CN(C)C(=O)C1CCCN1c1ncnc2ccsc12 (stereo not shown) | 4.04 | 9.148 | 2.589 | 9.524
COc1ccc(Cn2c(=O)n(C)c(=O)c3sccc32)cc1 | -17.07 | -11.79 | 7.675 | 13.56
CC(C)CN1CCC2(C=C(C(=O)N3CCCC3)c3ccccc32)CC1 | 2.703 | -8.108 | 4.794 | 3.774
COc1cccc2c1N(S(=O)(=O)c1cc(C(=O)O)cs1)CCC2 | 2.646 | 6.124 | 12.11 | -5.882
CCn1ccnc1CN(C)c1cc(C2CCCNC2)nc(C)n1 (stereo not shown) | -1.064 | -10.24 | 3.954 | 4.286
O=C(NCc1cccs1)C1CCCN(c2cc(-n3cncn3)ncn2)C1 (stereo not shown) | 0 | -8.771 | -3.293 | 6.957
O=C(CCO)N1CC2(CCN(c3ccccc3)C2)C1 | -5.747 | 2.536 | 6.251 | 22
Cc1cccc(NC(=O)CN(C)C(=O)c2scnc2C)n1 | 1.508 | -12.97 | -1.989 | -15.73
CCCc1noc(C[S+]([O-])CC(=O)NCc2ccccc2)n1 (stereo not shown) | 1.657 | 6.198 | -2.057 | 1.036
CSCC1CCN(C(=O)Cn2ncc(N3CCCCC3)cc2=O)CC1 | -27.16 | -5.251 | 3.309 | 13.92
CCOc1cccc(COC(=O)c2cc(C)on2)n1 | 11 | -3.586 | 1.686 | 22.45
COc1ccc(CNc2ncnc3c2NC(=O)CN3)cc1 | 3.097 | -30.73 | 2.062 | 22.12
Cc1cn2nc(N3CCCC3C(=O)N3CCN(C)CC3)sc2n1 (stereo not shown) | 0.9804 | 10.99 | -2.853 | 1.6
NC(=O)c1cn[nH]c1NC(=O)c1ccc2c(c1)OCO2 | 8.995 | 3.052 | 3.262 | 4
CC(=O)N1CCCN(c2nccc(-c3cn(C)nc3C)n2)CC1 | 5.394 | -12.07 | 6.696 | 24.27
CCc1ccc(C(=O)N2CCC(O)(CN3CCOCC3)C(C)(C)C2)[nH]1 (stereo not shown) | -3.865 | -29.48 | 1.236 | 10.83
O=C(CC1CCN(CCN2CCCCC2)CC1)N1CCOCC1 | 5.357 | -1.604 | -2.034 | 13.98
Cc1nc(CN2C(=O)COC3(CCN(Cc4ccsc4)CC3)C2C)cs1 (stereo not shown) | 10.05 | -26.4 | 5.197 | 24.47
CC(C)c1cc(C(=O)N2CCc3ccccc3C2C(=O)O)n(C)n1 (stereo not shown) | 9.091 | 4.148 | 3.719 | -1.571
Cc1noc(-c2ccnc(Oc3ccccc3CN3CCCCC3)c2)n1 | 0.8 | -23.71 | 2.958 | 11.48
CCn1ccnc1CN1CCN(c2ncnc3ccsc23)CC1 | 9.189 | 4.783 | 4.399 | 13.7
CN1CCCC2(C1)CN(C(=O)C1CCCCC1)CCO2 (stereo not shown) | 4.854 | -11.18 | 2.914 | 17.48
Cn1cc(Cl)cc1C(=O)N1CCC2(CCCN(CC3CC3)C2=O)C1 (stereo not shown) | 2.041 | 6.103 | -4.729 | 8.065
Cc1n[nH]c(C)c1CNC(=O)N(Cc1ccccc1)CC(C)(C)O | 2.463 | -6.157 | 7.246 | 19.48
CC(=O)N1C[C@H]2CN(CC3CC3)C(=O)[C@H]2C1 | 10.68 | 2.164 | 3.923 | 21.36
CC(C)c1nc(-c2ccnc(N3CCNCC3)n2)no1 | 9.375 | -10.89 | 3.079 | 20.83
CCCN(CC(=O)OC)C(=O)c1sc(C)nc1C | 12.7 | 4.173 | 5.859 | 13.7
CCCSc1ncc(CN(C)CCN2CCCCC2)cn1 | 4.651 | -8.761 | 0.5722 | 9.929
c1ccc(-n2cc(CNCC3CCCN3c3cccnn3)nn2)cc1 (stereo not shown) | 3.468 | -0.008299 | 0.02646 | 6.14
CCc1cc(N(C)CCCO)n2nccc2n1 | 2.4 | -8.741 | 5.534 | 11.48
Cc1nc2c(c(NC(C)C)n1)CCN(C1CCOCC1)CC2 | 5.063 | -2.114 | 12.22 | 13.79

Some entries from above, unchanged:

| SMILES | A | B | C | D |
|---|---|---|---|---|
| `COc1ccccc1N(C)Cc1nc2c(cnn2C)c(=O)[nH]1` | 1.724 | 6.413 | 5.244 | 6.14 |
| `CCc1cc(N(C)CCCO)n2nccc2n1` | 2.4 | -8.741 | 5.534 | 11.48 |
| `CC(=O)NCC(=O)N1CCN(Cc2ccncc2)c2ncccc2C1` | 5.102 | 3.213 | 0.8226 | 13 |
| `Cn1cc(Cl)cc1C(=O)N1CCC2(CCCN(CC3CC3)C2=O)C1` (stereo not shown) | 2.041 | 6.103 | -4.729 | 8.065 |
| `COc1ccc(CNc2ncnc3c2NC(=O)CN3)cc1` | 3.097 | -30.73 | 2.062 | 22.12 |

Data taken from ChEMBL document CHEMBL3988442, “University of Dundee, Small-Polar-MMV Screening Library” (2021).